Results are given in words; binding and its absence hold for the method and conditions named. Binding seen in cells or lysates may run through a third protein. A yes stands for co-enrichment or nearness to the bait. Other partners may have been found.
What follows are binders tested against Psip1/p52 (endogenous) (mouse (endogenous in NIH 3T3 and MEFs)) (UniProt Q99JF8) (assay: affinity purification with mass spectrometry; A300-847 IP from NIH 3T3 nuclear extract, washes with 200 mM KCl; gel bands analysed by MS/MS (Mascot)).

Amino acid sequences for entries named in this document (tags omitted). A change or cut given only in a name is not applied to a line headed by its entry. Chains listed by the source or under a name are the forms on record and can include a tag or linker.
Psip1/p52 (endogenous) (mouse (endogenous in NIH 3T3 and MEFs)) (Q99JF8, form named): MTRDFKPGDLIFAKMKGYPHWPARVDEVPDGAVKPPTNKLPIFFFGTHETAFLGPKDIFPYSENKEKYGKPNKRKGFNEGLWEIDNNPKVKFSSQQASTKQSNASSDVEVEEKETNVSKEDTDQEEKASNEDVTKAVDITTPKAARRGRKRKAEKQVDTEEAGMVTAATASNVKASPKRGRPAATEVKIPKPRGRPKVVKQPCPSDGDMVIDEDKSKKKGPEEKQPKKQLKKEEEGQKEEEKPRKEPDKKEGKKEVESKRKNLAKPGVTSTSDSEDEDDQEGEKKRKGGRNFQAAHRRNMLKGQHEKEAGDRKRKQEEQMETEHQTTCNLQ

Row | binding | Binder
1 | binds | Srsf10 (alias Tra2b) (protein, UniProt P62996 1-288) MSDSGEQNYGERESRSASRSGSAHGSGKSARHTPARSRSKEDSRRSRSKSRSRSESRSRSRRSSRRHYTRSRSRSRSHRRSRSRSYSRDYRRRHSHSHSPMSTRRRHVGNRANPDPNCCLGVFGLSLYTTERDLREVFSKYGPIADVSIVYDQQSRRSRGFAFVYFENVDDAKEAKERANGMELDGRRIRVDFSITKRPHTPTPGIYMGRPTYGSSRRRDYYDRGYDRGYDDRDYYSRSYRGGGGGGGGWRAAQDRDQIYRRRSPSPYYSRGGYRSRSRSRSYSPRRY
2 | binds | Srsf 3 (protein, UniProt P84104 1-164) MHRDSCPLDCKVYVGNLGNNGNKTELERAFGYYGPLRSVWVARNPPGFAFVEFEDPRDAADAVRELDGRTLCGCRVRVELSNGEKRSRNRGPPPSWGRRPRDDYRRRSPPPRRRSPRRRSFSRSRSRSLSRDRRRERSLSRERNHKPSRSFSRSRSRSRSNERK
3 | binds | Srsf4 (protein, UniProt Q8VE97 1-489) MPRVYIGRLSYQARERDVERFFKGYGKILEVDLKNGYGFVEFDDLRDADDAVYELNGKDLCGERVIVEHARGPRRDGSYGSGRSGYGYRRSGRDKYGPPTRTEYRLIVENLSSRCSWQDLKDYMRQAGEVTYADAHKGRKNEGVIEFVSYSDMKRALEKLDGTEVNGRKIRLVEDKPGSRRRRSYSRSRSHSRSRSRSRHSRKSRSRSGSSKSSHSKSRSRSRSGSHSRSKSRSRSQSRSRSKKEKSRSPSKDNKSRSRSRSPDKSRSKSKDHAEDKLQNNDSAGKAKSHSPSRHDSKSRSRSQERRAEEERRRSVSRARSQEKSRSQEKSLLKSRSRSRSRSRSRSKDKRKGRKRSRDESRSRSRSKSERSRKHSSKRDSKVSSSSSSSKKKKDTDHSRSPSRSVSKEREHAKAESGQRGSRAEGESEAPNPEPRARSRSTSKSKPNVPAESRSRSKSASKTRSRSKSPSRSASRSPSRSRSRSHSRS
4 | binds | SF3B3 (protein, UniProt Q921M3 1-1217) MFLYNLTLQRATGISFAIHGNFSGTKQQEIVVSRGKILELLRPDPNTGKVHTLLTVEVFGVIRSLMAFRLTGGTKDYIVVGSDSGRIVILEYQPSKNMFEKIHQETFGKSGCRRIVPGQFLAVDPKGRAVMISAIEKQKLVYILNRDAAARLTISSPLEAHKANTLVYHVVGVDVGFENPMFACLEMDYEEADNDPTGEAAANTQQTLTFYELDLGLNHVVRKYSEPLEEHGNFLITVPGGSDGPSGVLICSENYITYKNFGDQPDIRCPIPRRRNDLDDPERGMIFVCSATHKTKSMFFFLAQTEQGDIFKITLETDEDMVTEIRLKYFDTVPVAAAMCVLKTGFLFVASEFGNHYLYQIAHLGDDDEEPEFSSAMPLEEGDTFFFQPRPLKNLVLVDELDSLSPILFCQIADLANEDTPQLYVACGRGPRSSLRVLRHGLEVSEMAVSELPGNPNAVWTVRRHIEDEFDAYIIVSFVNATLVLSIGETVEEVTDSGFLGTTPTLSCSLLGDDALVQVYPDGIRHIRADKRVNEWKTPGKKTIVKCAVNQRQVVIALTGGELVYFEMDPSGQLNEYTERKEMSADVVCMSLANVPPGEQRSRFLAVGLVDNTVRIISLDPSDCLQPLSMQALPAQPESLCIVEMGGTEKQDELGERGSIGFLYLNIGLQNGVLLRTVLDPVTGDLSDTRTRYLGSRPVKLFRVRMQGQEAVLAMSSRSWLSYSYQSRFHLTPLSYETLEFASGFASEQCPEGIVAISTNTLRILALEKLGAVFNQVAFPLQYTPRKFVIHPESNNLIIIETDHNAYTEATKAQRKQQMAEEMVEAAGEDERELAAEMAAAFLNENLPESIFGAPKAGNGQWASVIRVMNPIQGNTLDLVQLEQNEAAFSVAVCRFSNTGEDWYVLVGVAKDLILSPRSVAGGFVYTYKLVNNGEKLEFLHKTPVEEVPAAIAPFQGRVLIGVGKLLRVYDLGKKKLLRKCENKHIANYISGIQTIGHRVIVSDVQESFIWVRYKRNENQLIIFADDTYPRWVTTASLLDYDTVAGADKFGNICVVRLPPNTNDEVDEDPTGNKALWDRGLLNGASQKAEVIMNYHVGETVLSLQKTTLIPGGSESLVYTTLSGGIGILVPFTSHEDHDFFQHVEMHLRSEHPPLCGRDHLSFRSYYFPVKNVIDGDLCEQFNSMEPNKQKNVSEELDRTPPEVSKKLEDIRTRYAF

Second part, the binder before the results:

Row | Binder | binding
5 | Acinus (protein, UniProt Q9JIX8 1-1338) MWGRKRPNSSGETRGILSGNRGVDYGSGRGQSGPFEGRWRKLPKMPEAVGTDPSTSRKMAELEEVTLDGKPLQALRVTDLKAALEQRGLAKSGQKSALVKRLKGALMLENLQKHSTPHAAFQPNSQIGEEMSQNSFIKQYLEKQQELLRQRLEREAREAAELEEASAESEDEMTHPEGVASLLPPDFQSSLNRPELELSTHSPRKSSSFSEEKGESDDEKPRKGERRSSRVRQAKSKLPEYSQTAEEEEDQETPSRNLRVRADRNLKIEEEEEEEEEEEDDDDEEEEEVDEAQKSREAEAPTLKQFEDEEGEERTRAKPEKVVDEKPLNIRSQEKGELEKGGRVTRSQEEARRSHLARQQQEKETQIVSLPQEENEVKSSQSLEEKSQSPSPPPLPEDLEKAPVVLQPEQIVSEEETPPPLLTKEASSPPTHIQLQEEMEPVEGPAPPVLIQLSPPNTDAGAREPLASPHPAQLLRSLSPLSGTTDTKAESPAGRVSDESVLPLAQKSSLPECSTQKGVESEREKSAPLPLTVEEFAPAKGITEEPMKKQSLEQKEGRRASHALFPEHSGKQSADSSSSRSSSPSSSSSPSRSPSPDSVASRPQSSPGSKQRDGAQARVHANPHERPKMGSRSTSESRSRSRSRSRSASSSSRKSLSPGVSRDSNTSYTETKDPSCGQEAAAPSGPQLQVLEPKEKAPTFSASVRGRHLSHPEPEQQHVIQRLQPEQGSPKKCEAEEAEPPAATQPQTSETQISHLLESERTHHTVEEKEEVTMDTSENRPENEVPEPPLPVADQVSNDERPEGGAEEEEKKESSMPKSFKRKISVVSATKGVQAGNSDTEGGQPGRKRRWGASTAATQKKPSISITTESLKSLIPDIKPLAGQEAVVDLHADDSRISEDETERNGDDGTHDKGLKICRTVTQVVPAEGQENGQREEEEEKEPEAELPAPPQVSVEVALPPPVEHEVKKVTLGDTLTRRSISQQKSGVSITIDDPVRTAQVPSPPRGKISNIVHISNLVRPFTLGQLKELLGRTGTLVEEAFWIDKIKSHCFVTYSTVEEAVATRTALHGVKWPQSNPKFLCADYAEQDELDYHRGLLVDRPSETKAEEQGAPRPLHPPPPPPVQPPPHPRAEQREQERAVREQWAEREREMERRERTRSEREWDRDKVREGPRSRSRSRDRRRKERAKSKEKKSEKKEKAQEEPPAKLLDDLFRKTKAAPCIYWLPLTESQIVQKEAEQAERAKEREKRRKEREEEEQKEREKEAERERNRQLEREKRREHSRERERDRERERDRGDRERERERDRDRGRERDRRDTKRHSRSRSRSTPVRDRGGRR | binds
6 | Rbm39 (protein, UniProt Q8VH51 1-530) MADDIDIEAMLEAPYKKDENKLNSANGHEERSKKRKKSKSRSRSHERKRSKSKERKRSRDRERKKSKSRERKRSRSKERRRSRSRSRDRRFRGRYRSPYSGPKFNSAIRGKIGLPHSIKLSRRRSRSKSPFRKDKSPVREPIDNLTPEERDARTVFCMQLAARIRPRDLEEFFSTVGKVRDVRMISDRNSRRSKGIAYVEFVDVSSVPLAIGLTGQRVLGVPIIVQASQAEKNRAAAMANNLQKGSAGPMRLYVGSLHFNITEDMLRGIFEPFGRIESIQLMMDSETGRSKGYGFITFSDSECAKKALEQLNGFELAGRPMKVGHVTERTDASSASSFLDSDELERTGIDLGTTGRLQLMARLAEGTGLQIPPAAQQALQMSGSLAFGAVAEFSFVIDLQTRLSQQTEASALAAAASVQPLATQCFQLSNMFNPQTEEEVGWDTEIKDDVIEECNKHGGVIHIYVDKNSAQGNVYVKCPSIAAAIAAVNALHGRWFAGKMITAAYVPLPTYHNLFPDSMTATQLLVPSRR | binds
7 | DDX 50 (protein, UniProt Q99MJ9 1-734) MPGKLLWGDIMELEAPLEESESQRKERQKSDRRKSRHHSESEERTETRENGVTDDLDAPKPKKAKMREKLNGDTKEGLRFSDEFSPSHKSRRKDLPNGDVDEYEKRSKRVSSSENSHKSSDKAEETLTREQKEGAFSNFSISEETIKLLKGRGVTYLFPIQVKTFGPVYEGKDLIAQARTGTGKTFSFAIPLIERLQRNQETIKKSRSPKVLVLAPTRELANQVAKDFKDITRKLSVACFYGGTSYQSQINQIRNGIDILVGTPGRIKDHLQSGRLDLSKLRHVVLDEVDQMLDLGFAEQVEDIIHESYKTDSEDNPQTLLFSATCPQWVYKVAKKYMKSRYEQVDLVGKMTQKAATTVEHLAIQCHWSQRPAVIGDVLQVYSGSEGRAIIFCETKKNVTEMAMNPHIKQNAQCLHGDIAQSQREITLKGFREGSFKVLVATNVAARGLDIPEVDLVIQSSPPQDVESYIHRSGRTGRAGRTGICVCFYQPRERGQLRYVEQKAGITFKRVGVPSTMDLVKSKSMDAIRSLASVSYAAVDFFRPSAQRLIEEKGAVDALAAALAHISGASSFEPRSLITSDKGFVTMTLESPEEIQDVSCAWKELNRKLSSNAVSHVTRMCLLKGNMGVCFDVPTSESERLQAEWHDSDWILSVPAKLPEIEEYYDGNTSSNPRQRSGWSGGRSGRSGRSGGRSGGRSGRQSRQGSRSGSRQDGRRRSGNRNRSRSGGHKRNFD | binds
8 | U5 100K (protein, UniProt D3Z0M9 1-819) MAGELADKKDRDASPKEERKRSRTPERDRDRDRDRKSSPSKDRKRHRSRDRRRGGSRSRSRSRSKSVERERRHKERERDKERDRSKKERERDKDGHRRDKDRKRSSLSPGRGKDFKSRKDRDSKKGDEDEHGDKRPKIQPLSLEELLAKKKAEEEAEAKPKFLSKAEREAEALKRRQQEVEERQKMLEEERKKRKQFQDLGRKMLEDPQERERRERRERMERETNGNEDEEGRQKIREEKDKSKELHAIKERYLGGIKKRRRTRHLNDRKFVFEWDASEDTSIDYNPLYKERHQVQLLGRGFIAGIDLKQQKREQSRFYGDLMEKRRTLEEKEQEEARLRKLRKKEAKQRWDDRHWSQKKLDEMTDRDWRIFREDYSITTKGGKIPNPIRSWKDSSLPPHILEVIDKCGYKEPTPIQRQAIPIGLQNRDIIGVAETGSGKTAAFLIPLLVWITTLPKIDRIEESDQGPYAIILAPTRELAQQIEEETIKFGKPLGIRTVAVIGGISREDQGFRLRMGCEIVIATPGRLIDVLENRYLVLSRCTYVVLDEADRMIDMGFEPDVQKILEHMPVSNQKPDTDEAEDPEKMLANFESGKHKYRQTVMFTATMPPAVERLARSYLRRPAVVYIGSAGKPHERVEQKVFLMSESEKRKKLLAILEQGFDPPIIIFVNQKKGCDVLAKSLEKMGYNACTLHGGKGQEQREFALSNLKAGAKDILVATDVAGRGIDIQDVSMVVNYDMAKNIEDYIHRIGRTGRAGKSGVAITFLTKEDSAVFYELKQAILESPVSSCPPELANHPDAQHKPGTILTKKRREETIFA | binds

From article PMC3355077
